These are yes or no findings as the source states them, for the method shown. For some of these results: In cells and extracts the contact can be indirect. Some results given as binding are weak or reduced against the parent protein; the word gives no strength. For some of these results: Tags and fused reporters may be left off the sequences shown.

For assay [1], the target named is T1, AGB1 fused to the N-terminal fragment of mVenus for BiFC (pBS-35S:AGB1-VN159) (Arabidopsis thaliana) (UniProt P49177).
T1 sequence: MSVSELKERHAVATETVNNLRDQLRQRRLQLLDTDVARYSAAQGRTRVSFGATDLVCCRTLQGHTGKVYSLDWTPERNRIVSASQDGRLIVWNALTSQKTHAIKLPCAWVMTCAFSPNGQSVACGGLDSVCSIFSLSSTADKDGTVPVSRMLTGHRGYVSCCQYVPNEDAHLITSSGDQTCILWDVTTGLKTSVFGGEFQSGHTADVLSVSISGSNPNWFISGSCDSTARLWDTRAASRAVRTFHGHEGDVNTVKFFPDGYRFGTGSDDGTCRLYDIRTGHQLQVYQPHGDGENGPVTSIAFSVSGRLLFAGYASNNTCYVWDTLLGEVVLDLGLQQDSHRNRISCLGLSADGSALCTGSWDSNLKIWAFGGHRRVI
As to the kind of experiment: split reporter; BiFC with mVenus fragments; AGB1 with VN, PUB20 or AGG1 with VC80; transient expression from the 35S promoter.

Assay [2] deals with T2, Arabidopsis G-protein β subunit AGB1, two-hybrid bait (pGBKT7-AGB1) (Arabidopsis thaliana) (UniProt P49177).
T2 sequence: T1 sequence
As to the kind of experiment: two-hybrid; pGBK-AGB1 (bait) and pGADT7-Rec constructs (prey) co-introduced into S. cerevisiae AH109; HIS3 reporter on TDO (SD/-Trp/-Leu/-His + 10 mM 3-AT).

Assay [3] has as its target T2, Arabidopsis G-protein β subunit AGB1, two-hybrid bait (pGBKT7-AGB1) (Arabidopsis thaliana). The experiment in a line: two-hybrid; Matchmaker library screen by yeast mating; full-length AGB1 in pGBKT7 as bait, Arabidopsis mature leaf cDNA library as prey; high-stringency selection media (SD/QDO).

B1: AGG1 fused to the C-terminal fragment of mVenus for BiFC (pBS-35S:AGG1-VC80) (protein, UniProt Q9FDX9 1-98)
chain: MREETVVYEQEESVSHGGGKHRILAELARVEQEVAFLEKELKEVENTDIVSTVCEELLSVIEKGPDPLLPLTNGPLNLGWDRWFEGPNGGEGCRCLIL
In the case of B1, the binding entry in assay [1] is reported as “binds”.

B2: Plant U-box 20 (PUB20), full-length ORF, two-hybrid prey (pGADT7-Rec-PUB20) (protein, UniProt Q9C8D1 1-431)
chain: MGLSLRVRRRGGSVSKKEIIPVTSCSEEVEITIPSQFQCPISYELMKDPVIIASGITYDRENIEKWFESGYQTCPVTNTVLTSLEQIPNHTIRRMIQGWCGSSLGGGIERIPTPRVPVTSHQVSEICERLSAATRRGDYAACMEMVTKMTRLGKESERNRKCVKENGAGLVLCVCFDAFSENANASLLLEETVSVLTWMLPIGLEGQSKLTTTSSFNRLVELLRNGDQNAAFLIKELLELNVTHVHALTKINGVQEAFMKSINRDSTCVNSLISIHHMILTNQETVSRFLELDLVNITVEMLVDSENSVCEKALTVLNVICETKEGREKVRRNKLVIPILVKKILKISEKKDLVSVMWKVCKSGDGSEVEEALRLGAFKKLVVMLQVGCGEGTKEKVTELLKMMNKVMKMNGFVDRSYSSSIEFKHVKKPF
On to B2, for which the binding result in assay [2] and in assay [3] was “binds” in each case.

B3: PUB20 fused to the C-terminal fragment of mVenus for BiFC (pBS-35S:PUB20-VC80) (protein, UniProt Q9C8D1 1-431)
chain: B2 chain
Turning to B3, the binding result in assay [1] is listed as “binds”.
